# Reference: article PMC11798907
# Protein sequences, listed by entry. Tags and fused reporters are not part of them. Lines headed by an entry give the natural chain unless they say otherwise; changes in a name come on top.
# UniProt Q75KW2, entry or part of it: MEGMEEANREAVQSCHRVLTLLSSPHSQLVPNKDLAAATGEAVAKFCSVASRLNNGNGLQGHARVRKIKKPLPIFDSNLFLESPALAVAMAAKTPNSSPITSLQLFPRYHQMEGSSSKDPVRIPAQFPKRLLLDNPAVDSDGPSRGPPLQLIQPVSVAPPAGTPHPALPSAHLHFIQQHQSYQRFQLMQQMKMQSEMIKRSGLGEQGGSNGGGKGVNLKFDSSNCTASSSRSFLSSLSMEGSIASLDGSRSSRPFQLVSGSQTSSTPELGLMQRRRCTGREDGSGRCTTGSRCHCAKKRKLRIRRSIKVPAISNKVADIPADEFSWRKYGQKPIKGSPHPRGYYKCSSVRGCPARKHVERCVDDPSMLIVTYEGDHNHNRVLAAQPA
# UniProt Q6QHD1: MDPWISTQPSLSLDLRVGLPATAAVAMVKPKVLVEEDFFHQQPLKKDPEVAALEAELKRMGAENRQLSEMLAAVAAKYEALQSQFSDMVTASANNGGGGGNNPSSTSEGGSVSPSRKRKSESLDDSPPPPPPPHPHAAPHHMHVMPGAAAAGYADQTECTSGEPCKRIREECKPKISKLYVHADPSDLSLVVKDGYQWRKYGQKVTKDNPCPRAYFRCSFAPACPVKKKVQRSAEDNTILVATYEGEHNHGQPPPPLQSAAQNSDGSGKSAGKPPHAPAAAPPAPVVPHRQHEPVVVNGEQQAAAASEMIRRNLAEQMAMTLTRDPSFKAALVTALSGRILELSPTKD
# Construct, isoform or probe ends are uncertain for at least one entry. For part of these data: No signal at the amounts used counts as a negative. For part of these data: At least one verdict rests on a figure or table, not on a statement of the authors.
# Experiments:
# OsWRKY121 (Oryza sativa) = OsWRKY121 (Oryza sativa) (UniProt Q75KW2); assay: EMSA; details: LightShift Chemiluminescent EMSA kit protocol; 20 fmol biotin-labeled DNA, 4 pmol protein (where stated); pH and temperature not stated; recombinant protein; protein details: His-MBP (pDEST-HisMBP); label: 3'-biotin; probe letters rebuilt from the primers and the genome
# OsWRKY71 (Oryza sativa) = OsWRKY71 (Oryza sativa) (UniProt Q6QHD1); assay: EMSA; details: LightShift Chemiluminescent EMSA kit protocol; 20 fmol biotin-labeled DNA, 4 pmol protein (where stated); pH and temperature not stated; recombinant protein; protein details: His-MBP (pDEST-HisMBP); label: 3'-biotin; probe letters rebuilt from the primers and the genome
Sequence,binding result (OsWRKY121 (Oryza sativa)),binding result (OsWRKY71 (Oryza sativa))
ACCAGAGTTCTTTTTCCCCCTCTTCTACATAAACGAAAACAGCTTGTTGACTGGCTCCCTAGAGCTTTTTGTAAGTTGATCATCGAAGTAGCT (double strand) [OsNF-YC4 promoter P1],no binding,binds
AGCATTATGATGGCTAAGGATTGTCCTTTCGTTCAGGAAAAGTACAAAATCAAGGAAAATGCAGA (double strand) [OsNF-YC4 promoter P4],no binding,
